Data as given in patent US20080293632.

Sequences of proteins named here, by UniProt entry; tags and fusion partners are left off. Residues count along the entry.
UniProt O15266, 1-194: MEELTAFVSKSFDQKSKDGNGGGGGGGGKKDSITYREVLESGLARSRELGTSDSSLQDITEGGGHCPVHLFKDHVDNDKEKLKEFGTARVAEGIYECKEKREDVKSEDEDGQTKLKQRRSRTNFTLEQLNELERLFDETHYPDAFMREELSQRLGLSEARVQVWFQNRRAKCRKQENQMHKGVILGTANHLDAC

Biological target: SHOX-GST (GST-SHOX-STM, SHOX aa 1-194) (Homo sapiens) (UniProt O15266)
Experiment: EMSA
Conditions: two-nucleotide substitution almost completely abolished binding, purified recombinant protein, protein details: N-terminal GST (pGEX, E. coli), label: 32P

Row | Sequence | binding result (variant of BNP-1220 Wt) | binding result (variant of BNP-600 Wt)
1 | GGGTCACCAGGCCACCTGCTGATGATAGTTAGATCATGGGTGGTCAGATG (double strand) [BNP-1220b] | binds more weakly | 
2 | GGGTTCCTGGTCATACCCAGGCTTTTGATGAATGGCCACTGGGGAATCAGCAT (double strand) [BNP-600a] |  | binds more weakly
3 | TAATCACCAGGCCACCTGCTACTGATAACTAGATCATGGGTGGTCAGATG (double strand) [BNP-1220a] | binds more weakly | 

The comparison behind a weaker result is the experiment's own reference, which may not be listed here.
